Converted amounts (≈) assume the structure as drawn.

The test system of the experiment is M. tuberculosis mutant strain lacking LdtMt2 (ldtMt2::Tn). In kind it is cell-based.

On to `NNC(=O)c1ccncc1` [isoniazid], for which the minimum inhibitory concentration (MIC) – broadly, the lowest concentration found to suppress growth – stood at 0.03 µg/mL (≈ 0.219 µM).

For the origin of these results see patent publication US9273341B2, “Methods for treatment of bacterial infections” (THE JOHNS HOPKINS UNVIERSITY, priority 2010, dated 2016).
